Experimental data: PubChem BioAssay AID624297 (National Center for Advancing Translational Sciences (NCATS), 2012)
About 6,200 (1.8%) of roughly 340,000 compounds were called active. Inconclusive means that the source gave no clear call. Such entries were picked first, then a sample of the others. The call rests on the fitted dose curve; in most records, active means well fitted activation curve with a large enough effect; inconclusive means small, poorly fitted or top-dose-only effect; inactive means no such curve, though single readings can be large or run the other way. Where the call is inconclusive, the potency comes from a doubtful curve fit.

Experiment: A quantitative high throughput screen for small molecules that induce DNA re-replication in SW480 colon adenocarcinoma cells. Further: nearly all actives have a fitted effect of over 55% in size. On re-replication activation: % of control where 0% means no effect.
Conditions: Hoechst DNA content imaging, 48 h; re-replication activation: at 46.1 µM (top of the series) unless noted
Procedure, shortened: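 Quantitative HTS format with DMSO vehicle controls; 48 hr drug incubation at 37 C, then 40 min Hoechst staining and scanning imager measurement at 405 nm excitation.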
Potency means the concentration at half of the fitted maximal effect.

Structure (SMILES)	Potency	re-replication activation
Cc1ccc(S(=O)(=O)NC2(C(F)(F)F)NC(=O)N(c3ccccc3F)C2=O)cc1 (stereo not given)	inactive	–
CNCc1cc(Cl)cc(OC)c1OC(C)C	inconclusive: 32.6 µM [activator, single point]	–
CCc1nnc(NC(=O)c2cc([N+](=O)[O-])ccc2N2CCOCC2)s1	inactive	–
Cc1ccc(NC(=S)NCc2cccn2C)cc1	active: 20.6 µM	–
O=C(NCC1CCCO1)C1CCC(CNS(=O)(=O)c2ccccc2)CC1 (stereo not given)	inconclusive: 5.8 µM [activator, partial curve, poor fit]	–
CC(=O)N[C@@H](C)C(=O)OC(C)C(=O)Nc1cccc([N+](=O)[O-])c1 (stereo not given in full)	inconclusive: 9.2 µM [activator, single point]	–
O=C(NC(Cc1cccc(F)c1)C(=O)O)C1CCCCC1 (stereo not given)	inactive	–
O=C(Cc1ccc(Cl)cc1)Nc1ccc(-c2cc3ccccc3oc2=O)c(Cl)c1	active: 7.31 µM	–
CCc1nnc(NS(=O)(=O)c2ccc(NC(=O)c3cccc(Cl)c3)cc2)s1	inactive	–
CC(=O)c1ccc(NC(=O)C(C)Sc2nnc(C3CC3)n2C2CC2)cc1 (stereo not given)	inactive	–
CC1CCN(CCCNc2cc(NCCO)c([N+](=O)[O-])c3nonc23)CC1	inactive	–
NC(=O)c1ccsc1NC(=O)COC(=O)c1ccccn1	–	inconclusive: 70.3% [activator]
COc1ccc(COC[C@H](C)[C@H](O)[C@@H](C)[C@H]2OC(=O)[C@@H]2C)cc1	inconclusive: 0.092 µM [activator, full curve, poor fit]	–
COc1ccc(OC)c(/C=C2\SC(N3CCCCC3)=NC2=O)c1	inconclusive: 16.4 µM [activator, single point]	–
CCN(C(=O)CC(C)C)c1nnc(Cn2nnc3ccccc32)s1	inconclusive: 29.1 µM [activator, single point]	–
CCCCNCCOCCOc1ccccc1-c1ccccc1	inconclusive: 20.6 µM [activator, single point]	–
CCOc1ccccc1NC(=O)C(OC(=O)c1cnccn1)c1ccccc1 (stereo not given)	inactive	–
O=C(NNC(=O)C12CC3CC(CC(C3)C1)C2)c1ccccn1	inconclusive: 3.66 µM [activator, full curve]	–
O=C1c2cccc3cccc(c23)C(=O)N1c1ccccn1	inactive	–
Cc1ccc(NC(=O)CN(c2ccc(C)cc2)S(=O)(=O)c2cccc3nonc23)cc1	inconclusive: 29.1 µM [activator, single point]	–
CCCn1c(SCC(=O)NC2CCCC2)nnc1C(C)C	active: 18.4 µM	–
CCOc1ccc(-c2nc(CN3CCCC(C(=O)N4CCOCC4)C3)c(C)o2)cc1 (stereo not given)	inconclusive: 29.1 µM [activator, single point]	–
CC(=O)Nc1cccc(Nc2nc(-c3cccs3)nc3ccccc23)c1	inconclusive: 16.4 µM [activator, single point]	–
N#Cc1ccc(OCCOCCNC2CCCC2)cc1	inactive	–

Structure (SMILES)	Potency	re-replication activation
Cc1nnsc1C(=O)NC1CCCc2c1cnn2-c1ccc(C(C)(C)C)cc1 (stereo not given)	inconclusive: 0.0731 µM [activator, partial curve, poor fit]	–
CCOc1ccc(/C(C)=N\NC(=O)Cc2ccccc2)cc1	inactive	–
S=c1[nH]nc(C2COc3ccccc3O2)o1 (stereo not given)	–	inactive: 0.506% [at 9.22 µM]
CSCc1c(C(=O)N2CCCc3ccccc32)oc2ccccc12	inconclusive: 16.4 µM [activator, single point]	–
N[C@@H](Cc1ccc(O)c(O)c1)C(=O)O	inactive	–
Cc1cc(C(=O)CCl)c(C)n1CCc1ccccc1	inconclusive: 6.51 µM [activator, single point]	–
COCCCNC(=S)N1CCN(S(=O)(=O)c2ccc(OC)cc2)CC1	inactive	–
CCCCCCC(=O)N(O)C1CC(=O)N(c2ccc(C)cc2)C1=O (stereo not given)	inconclusive: 29.1 µM [activator, single point]	–
CCC1CCCCN1CCCNC(=O)Cn1c(=O)c2cccn2c2cccnc21 (stereo not given)	inconclusive: 13 µM [activator, partial curve, poor fit]	–
Cc1c(Br)c([N+](=O)[O-])nn1CC(=O)NC1CCCCCC1	inactive	–
Cn1cccc1C(=O)NC(=O)COC(=O)c1ccc(S(C)(=O)=O)c([N+](=O)[O-])c1	active: 16.4 µM	–
COc1ccc(OCC(=O)Nc2ccc3c(c2)nc(CCN2CCCC2)n3C)cc1	inconclusive: 0.291 µM [activator, partial curve, poor fit]	–
Cc1cc(SCC(=O)Nc2ncc(Cl)cc2Cl)nc2ccccc12	inconclusive: 0.291 µM [activator, full curve, poor fit]	–
NC(=O)c1ccsc1NC(=O)COC(=O)CNC(=O)c1cccc([N+](=O)[O-])c1	inconclusive: 14.6 µM [activator, single point]	–
Cc1ccc2c(c1)/C(=C/c1ccccc1)C(=O)N2	inconclusive: 16.4 µM [activator, partial curve, poor fit]	–
CC(C=NNc1ccc([N+](=O)[O-])cn1)=Cc1ccccc1	inconclusive: 29.1 µM [activator, single point]	–
COc1ccc(/C=C/C(=O)c2cc3cccc(OC)c3oc2=O)cc1	inconclusive: 29.1 µM [activator, single point]	–
Cc1ccc(S(=O)(=O)c2c(N)n(Cc3ccco3)c3nc4ccccc4nc23)cc1C	inconclusive: 23.1 µM [activator, single point]	–
O=C(Cc1ccc(N2CCNC2=O)cc1)N1CCCC(Nc2ccc(F)c(F)c2)C1 (stereo not given)	active: 5.8 µM	–
CC(C)c1ccc(NC(=O)[C@H](NC(=O)[C@@H]2Cc3ccccc3CN2)c2ccccc2)cc1	inconclusive: 18.4 µM [activator, single point]	–
Cc1ccc(NC(=O)CN2c3cccc4cccc(c34)S2(=O)=O)cc1	inactive	–
Brc1cc(Br)c2nc(-c3ccc(N4CCOCC4)cc3)ccc2c1	active: 8.2 µM	–
COc1cc(NC(=O)c2cc(Cl)nnc2Cl)cc(OC)c1OC	inconclusive: 29.1 µM [activator, single point]	–
COCCCNC(=S)N1CCC(C(=O)c2ccc3c(c2)OCCO3)CC1	inactive	–

In the list so far, these have a furan ring, fused or not.
Structure (SMILES)	Potency	re-replication activation
CSCc1c(C(=O)N2CCCc3ccccc32)oc2ccccc12	inconclusive: 16.4 µM [activator, single point]	–
Cc1ccc(S(=O)(=O)c2c(N)n(Cc3ccco3)c3nc4ccccc4nc23)cc1C	inconclusive: 23.1 µM [activator, single point]	–

Single entries from above:
Under Potency, Cc1ccc2c(c1)/C(=C/c1ccccc1)C(=O)N2 is entered as inconclusive: 16.4 µM [activator, partial curve, poor fit]
Under Potency, Cc1cc(C(=O)CCl)c(C)n1CCc1ccccc1 is entered as inconclusive: 6.51 µM [activator, single point]

More results

Structure (SMILES)	Potency	re-replication activation
O=C(CCc1nnc2ccc(NCc3ccco3)nn12)Nc1ccc(F)cc1	inconclusive: 9.2 µM [activator, partial curve, poor fit]	–
Cc1ccc(C(=O)NNC(=O)c2ccc3ccccc3c2O)cc1	inconclusive: 20.6 µM [activator, single point]	–
C=C1CCN([C@H](C(=O)NCc2ccc(Cl)c(Cl)c2)C(C)C)S(=O)(=O)c2ccccc21	inconclusive: 0.0651 µM [activator, full curve, poor fit]	–
CCCCCCc1cc2cc(S(=O)(=O)c3ccc(F)cc3)c(=O)oc2cc1O	active: 4.61 µM	–
O=C(N/C(=C/c1ccc(Cl)cc1)C(=O)N1CCCCC1)c1ccco1	inconclusive: 29.1 µM [activator, single point]	–
Cc1ccc2c(c1)c(C)c(C)n2CC(O)Cn1nnc2ccccc21 (stereo not given)	inconclusive: 2.31 µM [activator, full curve, poor fit]	–
CCOc1ccc(/C(O)=C2/C(=O)C(=O)N(c3ccccn3)C2c2ccc(F)cc2)c(C)c1 (stereo not given)	inconclusive: 29.1 µM [activator, single point]	–
Nc1nc(CN2CCN(c3ccccc3F)CC2)nc(Nc2ccc3c(c2)OCCO3)n1	inactive	–
CC(C)CCN(Cc1ccco1)S(=O)(=O)c1ccc(-c2ccc(=O)[nH]n2)s1	inconclusive: 18.4 µM [activator, partial curve, poor fit]	–
CCN(CC(=O)NC1CCS(=O)(=O)C1)c1ccc([N+](=O)[O-])cc1C#N (stereo not given)	inconclusive: 29.1 µM [activator, single point]	–
Cc1cc([N+](=O)[O-])nn1Cc1ccc(C(=O)N/N=C/c2ccc(O)cc2O)cc1	inconclusive: 5.8 µM [activator, full curve, poor fit]	–
O=c1c2ccccc2[nH]c2ccccc12	active: 18.4 µM	–
Cc1ccc(C)c(CN2C(=O)c3ccccc3S(=O)c3ccc(C(=O)NCCCN4CCCC4)cc32)c1 (stereo not given)	inconclusive: 29.1 µM [activator, single point]	–
CC(C)C1Cc2c(sc(NC(=S)NC(=O)c3ccccc3)c2C#N)CO1 (stereo not given)	inactive	–
CCCC1=NN(C(=O)C(=O)Nc2ccc(Br)cc2)C(O)(C(F)(F)F)C1 (stereo not given)	inconclusive: 23.1 µM [activator, single point]	–
CC(=O)NC1=NN(C(C)=O)C(C)(c2cccnc2)S1 (stereo not given)	inconclusive: 20.6 µM [activator, partial curve, poor fit]	–
Cc1cc(/C=C2/NC(=O)NC2=O)c(C)n1-c1ccc(C#N)cc1	inconclusive: 18.4 µM [activator, single point]	–
O=[N+]([O-])c1ccccc1N/N=C/c1cc2ccccc2nc1Cl	inactive	–
CN1CCN(c2ccc(Cl)cc2NC(=O)c2nn(-c3ccccc3)c(=O)c3ccccc23)CC1	inconclusive: 2.91 µM [activator, partial curve, poor fit]	–
CCOC(=O)C1CCCN(c2nc3c(C)cccn3c(=O)c2/C=C(\C#N)C(=O)NCc2ccco2)C1 (stereo not given)	inconclusive: 6.51 µM [activator, single point]	–
Cc1ccccc1-n1c(C)nnc1SCC(=O)N1CCc2ccccc2C1	inactive	–
COc1ccc(CNC(=O)COC(=O)C2CCN(S(=O)(=O)c3ccccc3C(F)(F)F)CC2)cc1	inconclusive: 29.1 µM [activator, single point]	–
